From patent US7772245B2, “Inhibitors of histone deacetylase” (Miikana Therapeutics, Inc., priority 2005, dated 2010)
At least one structure is not confirmed: it was looked up by name or label, or the drawing left a doubt.

system: HDAC; test: In vitro fluorescent histone deacetylase assay (Biomol HDAC fluorescent activity kit, HeLa cell nuclear extract); type: biochemical; details: 100 μM compound; HeLa cell nuclear extract as source of HDAC activity; 50 μM substrate, 10 min at room temperature
Procedure: Histone deacetylase (HDAC) activity assays were performed using the HDAC fluorescent activity assay/drug discovery kit (Biomol Research Laboratories, Plymouth Meeting, Pa.) essentially according to the manufacturer's instructions. The included HeLa cell nuclear extract, which contains a mosaic of HDAC enzymes and other nuclear factors, was used as the source of HDAC activity. The final substrate concentration in the assay mixture was 50 μM. The reaction was allowed to proceed for 10 min at room temperature before stopping the reaction. Test compounds were prepared as 20 mM stock solutions in DMSO (Molecular Biology grade, Sigma-Aldrich Co., St. Louis, Mo.) and stored at −70° C. Serial dilutions of test compounds were prepared in assay buffer immediately prior to testing. DMSO was determined in a separate trial to have no significant effect on the activity of this assay at concentrations up to 5%; the final DMSO concentration in the wells was no more than 2% and therefore DMSO effects were safely neglected. Assays were performed in white polystyrene 96-well half-area assay plates (Corning, Corning, N.Y.) and measured on a Wallace 1420 fluorescent plate reader (Wallac Oy, Turku, Finland) with an excitation wavelength of 355 nm, an emission wavelength of 460 nm, and a 1 sec signal averaging time.

Point of comparison: O=C(NO)c1cnc(N2CCc3[nH]c4ccccc4c3CC2)nc1 [Example 114, N-hydroxy-2-(1,4,5,6-tetrahydroazepino[4,5-b]indol-3(2H)-1-yl)pyrimidine-5-carboxamide], “% Inhibition of HDAC @ 100 μM” value 99.9%. Against it:
- O=C(NO)c1cnc(N2CCc3[nH]c4ccc(-c5ccc(CN6CCSCC6)cc5)cc4c3C2)nc1 [Example 105, N-hydroxy-2-{8-[4-(thiomorpholin-4-ylmethyl)phenyl]-1,3,4,5-tetrahydro-2H-pyrido[4,3-b]indol-2-yl}pyrimidine-5-carboxamide] — the same, 99.9%
- O=C(NO)c1cnc(N2CCc3[nH]c4ccc(-c5cccnc5)cc4c3C2)nc1 [Example 47, N-hydroxy-2-{8-(pyridin-3-yl)-1,3,4,5-tetrahydro-2H-pyrido[4,3-b]indol-2-yl}pyrimidine-5-carboxamide] — higher, 100%
- O=C(NO)c1cnc(N2CCc3[nH]c4ccc(-c5cccc(C(=O)N6CCCC6)c5)cc4c3C2)nc1 [Example 42, N-hydroxy-2-{8-[3-(pyrrolidin-1-ylcarbonyl)phenyl]-1,3,4,5-tetrahydro-2H-pyrido[4,3-b]indol-2-yl}pyrimidine-5-carboxamide] — higher, 100%
- CN(C)Cc1cccc(-c2ccc3[nH]c4c(c3c2)CN(c2ncc(C(=O)NO)cn2)CC4)c1 [Example 92, N-hydroxy-2-{8-[3-(N,N-dimethylaminomethyl)phenyl]-1,3,4,5-tetrahydro-2H-pyrido[4,3-b]indol-2-yl}pyrimidine-5-carboxamide] — the same, 99.9%
- O=C(NO)c1cnc(N2CCc3[nH]c4ccc(-c5ccc(CN6CCCC6)cc5)cc4c3C2)nc1 [Example 103, N-hydroxy-2-{8-[4-(pyrrolidin-1-ylmethyl)phenyl]-1,3,4,5-tetrahydro-2H-pyrido[4,3-b]indol-2-yl}pyrimidine-5-carboxamide] — the same, 99.9%
- O=C(NO)c1cnc(N2CCc3[nH]c4ccc(F)cc4c3C2)nc1 [Example 111, N-hydroxy-2-(8-fluoro-1,3,4,5-tetrahydro-2H-pyrido[4,3-b]indol-2-yl)pyrimidine-5-carboxamide] — the same, 99.9%
- O=C(NO)c1cnc(N2CCc3[nH]c4ccc(F)cc4c3CC2)nc1 [Example 115, N-hydroxy-2-(9-fluoro-1,4,5,6-tetrahydroazepino[4,5-b]indol-3(2H)-1-yl)pyrimidine-5-carboxamide] — the same, 99.9%
- CC(=O)Nc1ccc2[nH]c3c(c2c1)CN(c1ncc(C(=O)NO)cn1)CC3 [Example 77, N-hydroxy-2-(8-(N-acetamido)-1,3,4,5-tetrahydro-2H-pyrido[4,3-b]indol-2-yl)pyrimidine-5-carboxamide] — higher, 100%
- O=C(NO)c1cnc(N2CCc3[nH]c4cc(-c5cccc(CN6CCCC6)c5)ccc4c3C2)nc1 [Example 121, N-hydroxy-2-{7-[3-(pyrrolidin-1-ylmethyl)phenyl]-1,3,4,5-tetrahydro-2H-pyrido[4,3-b]indol-2-yl}pyrimidine-5-carboxamide] — lower, 99.6%
- CS(=O)(=O)Nc1cccc(-c2ccc3[nH]c4c(c3c2)CN(c2ncc(C(=O)NO)cn2)CC4)c1 [Example 88, N-hydroxy-2-{8-[3-(N-methylsulfonamido)phenyl]-1,3,4,5-tetrahydro-2H-pyrido[4,3-b]indol-2-yl}pyrimidine-5-carboxamide] — higher, 100%
